Data source: PubChem BioAssay AID1259254 (NCATS, 2017)
The deposit covers about 59,000 reagents; this is a part drawn at random. In the full data, about 1,550 (2.6%) got an active call. 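G2 share is only a proxy for re-replication; each gene was hit by three separate siRNAs, and active genes were retested.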 The numbers tell different reagents against one gene apart. Not all columns of the deposit are shown. Not stated in the record: the amount of reagent.

Purpose: 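Genome-wide screen for genes that prevent DNA re-replication in cancer cells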 (primary screen)
Cell system: human HCT116 colorectal cancer cells
Reagent: single siRNA against human genes
Duration: 3 days
Detection: 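Imaged Hoechst DNA stain sorts each cell into a cycle phase by DNA amount; per plate, G2 fraction set to 0% for non-targeting and 100% for GMNN siRNA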
Direction: G2 robust z-score and G2 cells, % of GMNN control: higher = more G2 cells, more excess DNA replication
Call rule: 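Active siRNAs have a G2 robust z of 5 or more median absolute deviations over the median, which in these data means about 38% or higher of GMNN control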

no.	gene	siRNA no.	G2 robust z-score	G2 cells, % of GMNN control	outcome
1	ST8SIA3	1	-0.774	-2.48	inactive
2	ST8SIA3	2	0.682	7.76	inactive
3	ST8SIA3	3	-0.894	-3.32	inactive
4	CSDE1	1	-0.0858	2.36	inactive
5	CSDE1	2	-0.546	-0.877	inactive
6	CSDE1	3	0.763	8.34	inactive
7	DLEU1	1	0.41	5.85	inactive
8	DLEU1	2	-0.22	1.42	inactive
9	DLEU1	3	0.349	5.42	inactive
10	SAXO1	1	-0.215	1.46	inactive
11	SAXO1	2	-0.159	1.85	inactive
12	SAXO1	3	0.0412	3.26	inactive
13	EIF4A1	1	1.62	14.4	inactive
14	EIF4A1	2	3.89	30.3	inactive
15	EIF4A1	3	0.674	7.71	inactive
16	TMC7	1	-1.03	-4.31	inactive
17	TMC7	2	1.17	11.2	inactive
18	TMC7	3	-0.915	-3.47	inactive

2 entries from above, arranged by “G2 cells, % of GMNN control”, descending:
gene	siRNA no.	G2 robust z-score	G2 cells, % of GMNN control	outcome
SAXO1	3	0.0412	3.26	inactive
SAXO1	2	-0.159	1.85	inactive

More records:
no.	gene	siRNA no.	G2 robust z-score	G2 cells, % of GMNN control	outcome
19	CFAP144P1	1	7.45	55.4	active
20	CFAP144P1	2	-1.28	-6.05	inactive
21	CFAP144P1	3	2.42	20	inactive
22	ADPRH	1	2.7	22	inactive
23	ADPRH	2	-0.173	1.75	inactive
24	ADPRH	3	0.739	8.17	inactive
25	SPRR1A	1	8.07	59.8	active
26	SPRR1A	2	-1.22	-5.62	inactive
27	SPRR1A	3	-0.606	-1.29	inactive
28	TP53I11	1	5.19	39.5	active
29	TP53I11	2	1.44	13.1	inactive
30	TP53I11	3	-0.114	2.16	inactive
31	PRAF2	1	-0.0954	2.3	inactive
32	PRAF2	2	-0.685	-1.85	inactive
33	PRAF2	3	-1.09	-4.67	inactive
34	TEF	1	-0.126	2.08	inactive
35	TEF	2	4.63	35.5	inactive
36	TEF	3	0.074	3.49	inactive
37	TMEM47	1	0.406	5.83	inactive
38	TMEM47	2	0.411	5.86	inactive
39	TMEM47	3	-0.159	1.85	inactive
40	CBY3	1	-0.905	-3.4	inactive
41	CBY3	2	-0.878	-3.21	inactive
42	CBY3	3	1.07	10.5	inactive
43	HAPSTR1	1	5.22	39.7	active
44	HAPSTR1	2	2.76	22.4	inactive
45	HAPSTR1	3	0.312	5.16	inactive
46	WIZ	1	-1.23	-5.67	inactive
47	WIZ	2	-0.587	-1.16	inactive
48	WIZ	3	-0.149	1.92	inactive
